Experimental data reported in publication PMC9061766.
No constants are given. Whether binding was seen depends on the method and setting. Some entries that bind do so weakly or less than the wild type. Blank lines part the entries; values can stand above or below the binder they belong to.

Molecular target: T1, Nup93 (X. laevis (endogenous in oocytes)) (UniProt Q7ZX96)
T1 sequence: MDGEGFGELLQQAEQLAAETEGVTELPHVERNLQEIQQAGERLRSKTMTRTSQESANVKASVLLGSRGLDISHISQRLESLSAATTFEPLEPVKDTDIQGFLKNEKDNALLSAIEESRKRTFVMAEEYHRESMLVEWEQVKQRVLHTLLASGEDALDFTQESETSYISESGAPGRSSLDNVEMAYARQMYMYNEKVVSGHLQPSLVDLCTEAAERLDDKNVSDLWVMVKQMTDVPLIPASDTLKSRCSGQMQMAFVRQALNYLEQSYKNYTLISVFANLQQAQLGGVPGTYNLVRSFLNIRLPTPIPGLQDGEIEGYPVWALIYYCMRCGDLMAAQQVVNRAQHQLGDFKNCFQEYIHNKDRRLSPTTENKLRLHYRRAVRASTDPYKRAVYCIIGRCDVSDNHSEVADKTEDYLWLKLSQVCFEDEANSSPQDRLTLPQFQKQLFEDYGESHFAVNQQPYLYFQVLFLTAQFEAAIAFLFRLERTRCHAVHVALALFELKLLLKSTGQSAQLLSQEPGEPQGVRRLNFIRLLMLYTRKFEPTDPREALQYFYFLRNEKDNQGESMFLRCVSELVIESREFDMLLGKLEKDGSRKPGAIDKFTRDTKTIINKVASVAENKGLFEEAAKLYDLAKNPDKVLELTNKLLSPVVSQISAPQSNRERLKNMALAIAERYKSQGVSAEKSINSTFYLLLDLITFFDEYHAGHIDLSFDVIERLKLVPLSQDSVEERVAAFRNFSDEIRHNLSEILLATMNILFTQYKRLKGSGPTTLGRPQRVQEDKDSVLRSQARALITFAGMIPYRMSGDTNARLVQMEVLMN
Assay: cryo-EM structure; single-particle cryo-EM of NPCs on the nuclear envelope from X. laevis oocytes; IR subunit reconstructed at 4.2 Å average resolution (local up to 3.8 Å); known and AlphaFold-predicted models docked into the map

binding: binds
B1: NDC1 (protein, UniProt Q6AX31 1-660)
chain: MTMLGERLVLRWRVAASFAWSVILMPVCCALFIVLSRIQILHPIQWLTDSISDLTSSYTIFCLLLICAILGLQCTFLMEYYTVVPSIPCSRLALIGNLLLPHRILHSLAHVAMGVLASWCYAVLSKGKYQLLVVSCTLQSEDEADKPSHCLNESHLFQLLCGAFFGYSYSLQYFVHNMNYLSFPSIQQYKYLQFRRFLPLIIKQSVFQSLYFIRSYAILYFCLGNIPRTWIQTALNLHMDRQQPSLDTLRGFLNLSLFYQIWLSGTFLLATWYMVWILFRIYTTEARIFPVQTSFAEEAEKCLPFILNSNTLPLVKYLAMQDLVLLSQYSPSRRQEVFSLSQPGGHPHNWTSISKECLNLMSSLTSRLIAHQEAAANNGRMRVPSSPKQIRKSSSSSGTSLIEDSAEQTQNLSTIPRIGIPSLLKTASLKSSLDIGSPFATPGVKQMSESLDPNTPCHGSVQSPQVTRRGAKLWTSDSDVQKNGSEVSPVMHRPVCNGAKQGILHTWFQHKLVQIKNVLSKRGLIMYLFSKHPEASSQDVFADAQIHIWALEALSHLVAASFSEDRMGVVQTSLSSVLAILLTLQEAVEKHFKLPHASSKPARNPGSLLDSSCKTLRFSLRAALKTAIYRITTTFGEHLHAVPVSSEHKKKLQQFLDFKE

binding: binds
B2: Nup93 (protein, UniProt Q7ZX96 1-820)
chain: T1 sequence
